The values below come from US4332787A, “Assay for beta-adrenergic antagonists and antibody therefor” (The Massachusetts General Hospital, priority 1980, dated 1982).

The target in the test is antibody (antiacebutolol amine immune serum). Nature of the test: Competitive binding inhibition of 3H-(-)-propranolol to anti-acebutolol amine antibody (radioimmunoassay). Also noted: species or system rabbit. The following applies: 3H-(-)-propranolol displacement from antibody; read-out: apparent KD (competitive binding inhibition). How it is done:
Acebutolol amine having the formula: [drawing 3] was covalently linked to lysozyme. 150 mg of acebutolol amine was dissolved in 1.0 N HCl and was cooled to 0° C. in a salt ice bath. To this solution was added 1 cc of 0.5 M NaNO2 also at 0° C. and the resultant mixture was allowed to stand at 0° C. for 10 min. A mixture of 200 mg crystalline lysozyme in 15% aqueous sodium carbonate at 0° C. was added to 2.0 cc of the above mixture. […] The resultant product was dialyzed against phosphate buffered saline and the purified conjugate was frozen in dry ice-acetone and stored at -20° C. The product then was thawed and centrifuged for 10 min at 3000 rpm. The supernatant was recovered and mixed with Tris buffer, pH 7 at a concentration of 30 mg/ml.
Albino rabbits were immunized with this conjugate at monthly intervals for four months. Each rabbit received intracutaneous toepad injections of 0.5 mg of protein emulsified in complete Freund's adjuvant.
The assays were performed in triplicate. […] For each determination, an identical volume of preimmune serum was assayed as a control for antibody binding. […] Bound radioactivity was counted in the presence of 10 ml of Aquasol-2 (New England Nuclear) in a Packard Tricarb liquid scintillation counter with a counting efficiency of 40%. […]

Regarding `CC(C)NCC(O)COc1cccc2ccccc12` (racemic) [propranolol], the Kd is 10 nM.
